According to PubChem BioAssay AID493014 (National Center for Advancing Translational Sciences (NCATS), 2011):
The other results are listed elsewhere or left out. Shown are side measurements of this screen, not its main read-out; they come without a call. Compounds called inactive in the main read-out are mostly missing here. The note in brackets gives the kind of curve behind each potency; many fits are weak.

Experiment: qHTS Assay to Find Inhibitors of Chronic Active B-Cell Receptor Signaling
Settings: ABC-DLBCL IkBa-CBG/CBR reporter, luminescence ratio (green luciferase fused to IkBa over red control in TMD8 lymphoma cells), 4 h
How it was run: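 Compounds up to 46 uM were incubated four hours with TMD8 cells whose green CBG68 luciferase is fused to IkappaBalpha; red CBR luminescence normalised the signal, and concentration-effect curves were fitted to fusion, red and ratio data.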

[1] = measured here: CBR red luminescence, cell number
[2] = measured here: IkBa-CBG green luminescence

SMILES | AC50 [1] | AC50 [2]
CCN(C(=O)COC(=O)/C=C/c1cnc2ccccc2n1)C1CCS(=O)(=O)C1 (stereo not given) | 35.5 µM [falling, single point] | –
O=C(CN(c1cccc(C(F)(F)F)c1)S(=O)(=O)c1ccc(Cl)c([N+](=O)[O-])c1)NCc1ccccc1Cl | 20.6 µM [falling, partial curve] | –
CC(C)c1cc(C(=O)Nc2sc3c(c2C#N)CCC3)no1 | 14.1 µM [rising, partial curve] | –
COc1ccccc1C/C(N)=N/OC(=O)COc1cccc(C)c1 | 10.3 µM [rising, partial curve, poor fit] | –
C/C(=N\OC(=O)c1cccc(Cl)c1)c1sc(C)nc1C | 16.4 µM [falling, single point] | –
O=C(Nc1cccnc1)OC1CCCC1 | 1.58 µM [rising, partial curve, poor fit] | –
CC(=O)Nc1nc2c(s1)C(=O)NCC(C)(C)C2 | 1.26 µM [rising, full curve, poor fit] | –
CCC1=NN(C(=O)C(=O)Nc2ccc(Br)cc2)C(O)(C(F)(F)F)C1 (stereo not given) | 25.1 µM [falling, single point] | –
CC1(C)CC(=O)C(C(C#Cc2ccccc2)C2=C(O)CC(C)(C)CC2=O)=C(O)C1 | 11.2 µM [falling, partial curve] | –
Cc1nn2c(C)c(C(=O)Nc3ccccc3)cnc2c1-c1ccccc1 | 2.82 µM [rising, partial curve, poor fit] | –
CN(C)C(=S)Nc1cccc(C(F)(F)F)c1 | 35.5 µM [falling, single point] | –
COc1ccc(N(C(=O)C2CCCCC2)C2C=CS(=O)(=O)C2)c(OC)c1 (stereo not given) | 4.11 µM [rising, full curve, poor fit] | –
COc1ccc(NC(=S)SC)cc1OC | 32.6 µM [falling, partial curve, poor fit] | –
Cc1ccc(S(=O)(=O)N2CCC(=O)N(CCOC(=O)Nc3cc(C)cc(C)c3)CC2)cc1 | – | 23.1 µM [falling, partial curve, poor fit]
COc1ccc(OC)c(/C=N/NC(=O)CC(=O)NC2CCCCC2)c1 | 0.794 µM [falling, partial curve, poor fit] | –
COc1cccc(-c2c(-c3cc(OC)cc(OC)c3)n(C)c3ccc(-c4cccc5[nH]ccc45)cc23)c1 | 0.92 µM [falling, full curve, poor fit] | –
CCOC(=O)CSc1nc2c(c(-c3ccc(C)o3)c1C#N)CCCC2 | 16.4 µM [falling, partial curve, poor fit] | –
c1ccc(C(Cc2nc(-c3ccccn3)no2)c2ccccc2)cc1 | 7.31 µM [falling, partial curve] | –
Cn1nc(C(F)(F)F)c2cc(NC(=O)OCc3ccc(F)cc3)sc21 | 3.55 µM [falling, single point] | –
Cc1ccc(S(=O)(=O)N2CCN(C(=O)C3CC3C)CC2)c(C)c1 (stereo not given) | 16.4 µM [falling, partial curve, poor fit] | –
Cc1ccccc1OCCn1c(CCNC(=O)C(C)C)nc2ccccc21 | 11.6 µM [falling, partial curve, poor fit] | –

Quoted at random: 4 records from the list
SMILES | AC50 [1] | AC50 [2]
Cc1ccccc1OCCn1c(CCNC(=O)C(C)C)nc2ccccc21 | 11.6 µM [falling, partial curve, poor fit] | –
O=C(Nc1cccnc1)OC1CCCC1 | 1.58 µM [rising, partial curve, poor fit] | –
CC(C)c1cc(C(=O)Nc2sc3c(c2C#N)CCC3)no1 | 14.1 µM [rising, partial curve] | –
COc1cccc(-c2c(-c3cc(OC)cc(OC)c3)n(C)c3ccc(-c4cccc5[nH]ccc45)cc23)c1 | 0.92 µM [falling, full curve, poor fit] | –

Next part:

SMILES | AC50 [1] | AC50 [2]
O=C(CSCc1cnn(-c2ccccc2)c1-n1cccc1)NCc1cccs1 | 16.4 µM [falling, single point] | –
Cc1cccc(NC(=S)NCCC(c2ccccc2)c2ccccc2)c1 | 20.6 µM [falling, single point] | –
Cc1ccc(N=Cc2c(O)ccc3ccccc23)cc1F | 20.6 µM [falling, single point] | –
Cc1ccc(CN2CCN(Cc3ccccc3)C(CCO)C2)s1 (stereo not given) | 12.6 µM [rising, partial curve, poor fit] | –
CN=C(Nc1ccccc1)SC1CC(=O)N(c2cccc(OC)c2)C1=O (stereo not given) | 15.8 µM [falling, partial curve, poor fit] | –
O=C(N/N=C/c1cccc(OCC(=O)N2CCCC2)c1)C(=O)Nc1ccccc1F | 25.9 µM [falling, partial curve, poor fit] | –
CCN1CC(CN(C)Cc2cn(-c3cccc(C)c3)nc2-c2cccc(F)c2)CC1=O (stereo not given) | 35.5 µM [falling, single point] | –
CCCc1[nH]n(-c2nc3ccccc3s2)c(=O)c1C=NCCCOC | 12.6 µM [falling, partial curve, poor fit] | –
COc1cc2c(cc1NC(=O)CCC(=O)O)oc1ccccc12 | 10 µM [falling, partial curve, poor fit] | –
Cc1ccc(Nc2nnc(SCC(=O)Nc3ccc(S(=O)(=O)N4CCOCC4)cc3)s2)cc1 | 0.00411 µM [falling, full curve, poor fit] | –
C/C=C/C(=O)Nc1cccc(C2=NOC3(C2)C[C@@H](C(N)=O)N(C(=O)c2cc([N+](=O)[O-])cc([N+](=O)[O-])c2C)C3)c1 (stereo not given in full) | 1 µM [rising, full curve, poor fit] | –
O=C(N/N=C/c1ccsc1)c1ccc2c(c1)OCO2 | 7.31 µM [falling, partial curve] | –
COc1cc2c(cc1OC)C(c1ccc(-c3ccc(Cl)cc3Cl)o1)=NCC2 | 12.6 µM [falling, partial curve, poor fit] | –
CC(C)c1nnc(NC(=O)c2cc3ccccc3o2)s1 | 1.26 µM [falling, full curve, poor fit] | –
CC(=O)NCC1CCCN(C(=O)c2ccc(OC3CCN(Cc4ccccn4)CC3)cc2)C1 (stereo not given) | 35.5 µM [rising, single point] | –
O=S(=O)(c1cccc2cccnc12)N1CCN(Cc2ccc3c(c2)OCO3)CC1 | 22.4 µM [rising, single point] | –
O=C(Cc1ccc(-n2c(=S)[nH]c3ccccc3c2=O)cc1)N1CCN(c2ccccc2)CC1 | 18.4 µM [rising, partial curve] | –
Cn1cc(C(=O)Nc2ccc(F)c(F)c2)cn1 | 29.1 µM [rising, single point] | –
C#CCOCCOCCOCCNc1nc(N2CCN(C(=O)CCCCCCCCCCNC(=O)Cn3cc(CCCCCN)nn3)CC2)nc(N2CCN(C(=O)CCCCCCCCCCNC(=O)Cn3cc(C[C@@H](C)O)nn3)CC2)n1 | 23.1 µM [rising, partial curve] | –
O=C(Oc1cccc(/C=N/NC(=O)c2ccccn2)c1)c1ccc([N+](=O)[O-])cc1 | 11.2 µM [falling, single point] | –
Cc1onc(-c2ccccc2)c1C(=O)OCC(=O)c1ccccc1 | 6.51 µM [falling, single point] | –

SMILES | AC50 [1] | AC50 [2]
COc1cc(-c2cc(C(=O)N(C)Cc3ccccc3)c3ccccc3n2)cc(OC)c1OC | 3.16 µM [rising, single point] | –
c1ccc(-c2csc(NNC3=NCCCCC3)n2)cc1 | 4.11 µM [falling, partial curve, poor fit] | –
Fc1ccc(OCc2nc3ccccc3s2)cc1 | 15.8 µM [falling, single point] | –
CN(C)c1ccc(/C=N/NC(=O)c2cnc3ccccc3c2)cc1 | 15.8 µM [falling, single point] | –
NC(N)=Nc1nc(-c2ccccc2)c2ccccc2n1 | 2.24 µM [falling, partial curve, poor fit] | –
CCOc1cccc(C(=O)Nc2nccs2)c1 | 18.4 µM [falling, partial curve, poor fit] | 20.6 µM [rising, partial curve, poor fit]
Cc1cc(=O)oc2cc(NC(=O)c3ccccc3C(=O)O)ccc12 | 14.1 µM [falling, single point] | –
CC1Oc2ccccc2N(CC(=O)N(Cc2ccccc2)Cc2ccccn2)C1=O (stereo not given) | 0.00461 µM [rising, full curve, poor fit] | –
O=C(O/N=C/c1cccc([N+](=O)[O-])c1)C1CC1 | 1.3 µM [rising, full curve, poor fit] | –
Cc1cccc(NS(=O)(=O)c2ccc(C3CCCCC3)cc2)c1 | 25.1 µM [rising, partial curve, poor fit] | –
Cc1ccc(S(=O)(=O)N(CCC(=O)NCc2ccccc2F)c2ccccc2)cc1 | 8.2 µM [rising, partial curve, poor fit] | –
C/C(CC(=O)Nc1ccccn1)=N\NC(=O)C(=O)Nc1cccc(Cl)c1C | 17.8 µM [falling, partial curve, poor fit] | –
COCCNC(=S)NN=C1CCC(c2ccccc2)CC1 (stereo not given) | 28.2 µM [falling, single point] | 25.1 µM [falling, single point]
COc1ccc(OCC(=O)NNc2c3ccccc3nc3ccccc23)cc1 | 16.4 µM [falling, single point] | 25.9 µM [rising, partial curve, poor fit]
Cc1ccc(C(=O)Nc2ccccc2C(=O)N2CCCCCC2)cc1 | 0.631 µM [rising, partial curve, poor fit] | –
O=C(Nc1ccccc1N1CCOCC1)c1ccc(Cl)c(S(=O)(=O)NCc2ccco2)c1 | 35.5 µM [falling, single point] | –
O=C(CC1(O)C(=O)N(C/C=C/c2ccccc2)c2ccccc21)c1ccccn1 (stereo not given) | 22.4 µM [rising, single point] | 20 µM [falling, single point]
O=C(NC(=O)c1ccccc1)Nc1ccccc1O | 3.16 µM [falling, full curve] | –
Cc1cccc2c(C(=O)N3CCN(C(=O)c4ccco4)CC3)cc(-c3cccc(Br)c3)nc12 | 10 µM [falling, partial curve, poor fit] | –
